Results published in the supplement of paper PMC12578635.
The other results are listed elsewhere or left out. Cut-off read from the data, not from the text of the source: active = 150% or more and inactive = the rest. Single values are uncertain, as repeats are few or missing.

tested on: Staphylococcus aureus JE2-lux inside RAW 264.7 macrophages; test: intracellular bacterial bioluminescence relative to DMSO vehicle; higher = higher intracellular bacterial metabolic activity; conditions: 10 µM; treatment time 4 h; gentamicin 50 µg/ml

| Compound | intracellular bacterial bioluminescence |
| --- | --- |
| Cc1ccccc1C(NC(=O)c1[nH]c2ccccc2c1C)c1ccncc1 (stereo unspecified) | inactive: 105% |
| Cc1cc2c(o1)CCc1sc(N(C)C(=O)Cc3ccccc3F)nc1-2 | inactive: 83.5% |
| Cc1ccccc1C(=O)n1nc(-c2ccccc2)nc1N | inactive: 92% |
| Cc1nc(-c2cccc(NS(=O)(=O)c3ccc4ccccc4c3)c2)cs1 | inactive: 114% |
| Cc1cccc(C(=O)Nc2cnc(N3CCN(c4ncnc5ccccc45)CC3)c(C(=O)O)c2)c1 | inactive: 87.7% |
| Cc1ccc(-c2csc(NC(=O)CSc3nncc(=O)[nH]3)n2)cc1 | inactive: 92% |
| Cc1n[nH]c(C)c1S(=O)(=O)NCCOc1ccc(-c2cccs2)nn1 | inactive: 109% |
| O=C(c1ccccc1)c1c2c3c(ccc(S(=O)(=O)O)c3[nH]c1=O)C(=O)c1ccccc1-2 | inactive: 116% |
| O=C(Nc1nc2ccc3ccccc3c2s1)c1coc2ccccc2c1=O | inactive: 107% |
| Clc1ccc2[nH]c3nc(SCc4nnc(-c5ccccc5)o4)nnc3c2c1 | inactive: 100% |
| C=CCOc1ccccc1NC(=O)c1[nH]nc2c1CCCCC2 | inactive: 105% |
| O=C(CCCc1ccccc1)Nc1c(C(=O)Nc2ccc3c(c2)OCCO3)oc2ccccc12 | inactive: 106% |
| CCOc1cccc(-c2cc(C(=O)N/N=C/c3ccccn3)[nH]n2)c1 | inactive: 100% |
| COc1ccc(CCn2nc(-c3cccnc3)oc2=O)cc1 | inactive: 57% |
| Cc1ccccc1OCC(=O)Nc1c(C(=O)Nc2ccc([N+](=O)[O-])cc2)oc2ccccc12 | inactive: 103% |
| Cc1ccc(Cn2c(=O)c3nc(C(=O)NCc4ccco4)nn3c3ccc(C)cc32)cc1 | inactive: 39.1% |
| Cc1ccc(S(=O)(=O)Nc2ccc(O)c3ncccc23)cc1 | inactive: 94% |
| COc1ccc(CCNC(=O)c2cc(-c3ccc(F)cc3)nc3[nH]nc(-c4ccccc4)c23)cc1OC | inactive: 88.5% |
| COc1ccc(CCNc2ncnc(N)c2[N+](=O)[O-])cc1OC | inactive: 73.8% |
| CSc1cccc(NC(=O)Cn2cccc2-c2nc(-c3ccccc3)cs2)c1 | inactive: 80.1% |
| Cc1ccc(CCC(=O)Nc2ccc(Cl)c([N+](=O)[O-])c2)o1 | inactive: 42.2% |
| O=C(CSc1nnc2n(Cc3ccccc3F)c3ccccc3n12)NC1CCCCC1 | inactive: 60.2% |
| CCOC(=O)c1cc(C)nc2c1c(=O)n(Cc1nc(-c3ccc(Cl)cc3)oc1C)c(=O)n2C | inactive: 102% |

| Compound | intracellular bacterial bioluminescence |
| --- | --- |
| COc1ccc(NC(=O)CC2SC(=N)NC2=O)cc1Cl (stereo unspecified) | inactive: 86.8% |
| O=C(COC(=O)c1ccc2ccccc2n1)c1ccc(Cl)c(Cl)c1 | inactive: 116% |
| N#Cc1c(N)nc(SCC(=O)c2ccc(Br)cc2)c(C#N)c1-c1cccs1 | inactive: 111% |
| COc1ccc(C2C(C#N)=C(SCC(=O)Nc3ccccc3C)NC3=C2C(=O)CC(C)(C)C3)cc1 (stereo unspecified) | inactive: 87.2% |
| Cc1ccc2c(c1)C(O)(CC(=O)c1ccc(C)s1)C(=O)N2 (stereo unspecified) | inactive: 103% |
| Clc1ccccc1-n1cc(-c2ccccc2)c2c(NCc3ccco3)ncnc21 | inactive: 70% |
| COc1ccc(Nc2ncnc3sc(C(=O)O)c(C)c23)c(OC)c1 | inactive: 102% |
| CC1(C)CC(=O)c2sc(NC(=O)c3ccc(NS(=O)(=O)c4ccc(Cl)cc4)cc3)nc2C1 | inactive: 119% |
| Cc1ccc(NC(=O)CSc2ccnc3c2c(=O)n(C)c(=O)n3C)cc1Cl | inactive: 107% |
| Cc1ccc2oc(SCc3noc(CCC(=O)Nc4nncs4)n3)nc2c1 | inactive: 102% |
| COc1ccccc1NC(=O)CCCn1c(=S)[nH]c2ccccc2c1=O | inactive: 14.9% |
| COc1ccc(-c2nc3c4c(C)c(C)n(C5CCCCC5)c4ncn3n2)cc1 | inactive: 132% |
| Cc1nnc(SCC(=O)N2CCc3ccccc32)[nH]c1=O | inactive: 109% |
| Cc1nn(-c2ccccc2)c2sc(C(=O)NCCc3ccccc3)cc12 | inactive: 113% |
| O=C(O)c1cccnc1SC1CC(=O)N(CCc2ccccc2)C1=O (stereo unspecified) | inactive: 113% |
| Cn1cc(C(=O)Nc2nccs2)c2nn(-c3ccccc3)c(=O)c-2c1 | inactive: 110% |
| COc1ccc(Cl)cc1NC(=O)CSC1=NS(=O)(=O)c2cc(F)ccc2N1 | inactive: 126% |
| CCCS(=O)(=O)N1CCN(c2cc(N(C)C)nc(C)n2)CC1 | inactive: 98.4% |
| Cc1cc(C)c2sc(N3CCN(c4ccccc4)CC3)nc2c1 | inactive: 92% |
| Cc1onc(-c2ccncc2)c1C(=O)NCC(c1ccc(F)cc1)N1CCCC1 (stereo unspecified) | inactive: 87.3% |
| O=C(c1ccco1)N(CCCn1ccnc1)c1nc2ccc(Br)cc2s1 | inactive: 93.7% |
| O=c1[nH]c(=O)c2cc(S(=O)(=O)Nc3cccc(-c4ccc(F)cc4)c3)ccc2[nH]1 | inactive: 88.2% |
| COC(=O)COC(=O)c1cnn2c(C(F)(F)F)cc(-c3ccc(C)cc3)nc12 | inactive: 90.5% |

| Compound | intracellular bacterial bioluminescence |
| --- | --- |
| Cc1sc(NC(=O)CN(Cc2ccccc2)C(=O)c2ccco2)c(C(N)=O)c1C | inactive: 89.1% |
| Cc1ccc(C(=O)NC2CC3CCC(C2)N3C(=O)Nc2ccccc2)cc1 (stereo unspecified) | inactive: 112% |
| Cn1c2c(c(=O)n(C)c1=O)C(c1ccccc1Br)C1=C(CCCC1=O)N2 (stereo unspecified) | inactive: 103% |
| Cc1nc(N2CCCC2)c2c(C)c(C(=O)Nc3cccc(F)c3)sc2n1 | inactive: 42.6% |
| COc1ccccc1NC(=O)c1nc(Nc2cccc(C)c2)c2ccccc2n1 | inactive: 91.1% |
| Cc1ccc(Cn2nnc3c(O)nc(Cn4nnc(-c5ccc(Cl)cc5)n4)nc32)cc1 | active: 166% |
| Cc1cc(C)nc(NC(=O)CCCn2nnc3cc(S(=O)(=O)N(C)C)ccc32)n1 | inactive: 113% |
| C=CCOC(=O)C1=C(C)NC(SCC(=O)OCC)=C(C#N)C1c1cccs1 (stereo unspecified) | inactive: 79.1% |
| CCCc1nc(SCC(=O)c2ccc(Cl)cc2)c2c(=O)n(C)c(=O)n(C)c2n1 | inactive: 97.6% |
| Cc1ncsc1C(=O)N1CCCC(c2nc3ccccc3c(=O)[nH]2)C1 (stereo unspecified) | inactive: 108% |
| O=C(CSc1nccc2ccccc12)Nc1c[nH]c2ccccc12 | inactive: 25.6% |
| O=C(CSc1nccc2ccccc12)Nc1ccccc1C(F)(F)F | inactive: 92.7% |
| COc1ccc(C(=O)N(Cc2nc3[nH]c(C)cc(=O)n3n2)c2ccc(C)cc2)cc1OC | inactive: 87.6% |
| CCC(=O)N1CCN(c2nc3ccc(C)cc3cc2-c2noc(-c3ccccc3)n2)CC1 | inactive: 37.5% |
| CC(C)c1ccc(NC(=O)c2cc(C(F)(F)F)n(C)n2)cc1 | inactive: 91.4% |
| COc1ccc(NC(=O)C2CCN(c3nc4ccccc4s3)CC2)c(OC)c1 | inactive: 87.5% |
| COc1cccc(CNC(=O)c2noc3c2CSc2ccccc2-3)c1 | inactive: 65.8% |
| CC(C)c1ccc2nc(SCC(=O)c3ccc4c(c3)OCCO4)c(C#N)cc2c1 | inactive: 114% |
| CCn1cc(C2=NOC(C(=O)NCc3ccccn3)C2)c(C)n1 (stereo unspecified) | inactive: 133% |
| Cc1nn(C)c(C)c1NC(=O)c1ncoc1-c1ccc(F)cc1 | inactive: 98.3% |
| Cc1cccc2sc(NNC(=O)c3ccc(N(C)C)cc3)nc12 | inactive: 71.6% |
| O=C1CC(c2ccc(Br)cc2)c2cnn(-c3nc4ccccc4s3)c2N1 (stereo unspecified) | inactive: 113% |
| Cc1oc(-c2ccno2)cc1S(=O)(=O)Nc1ccc(Br)cc1F | inactive: 86.5% |

| Compound | intracellular bacterial bioluminescence |
| --- | --- |
| O=C(Nc1cccc(-c2ccc3nncn3n2)c1)C(c1ccccc1)c1ccccc1 | inactive: 105% |
| Cc1nnc(NC(=O)CSc2nnc3ccc(-c4ccncc4)nn23)s1 | inactive: 99.2% |
| O=C(CC1CCN(C(=O)c2cc3ccccc3[nH]2)CC1)NC1CC1 | inactive: 110% |
| CCC(C)NC(=O)CSc1nc2cc(C)c(C)cc2cc1C#N (stereo unspecified) | inactive: 124% |
| O=C(O)CCN1C(=O)C2C3CC(C2C1=O)C1C(c2ccc(Cl)cc2)c2sc(=O)[nH]c2SC31 (stereo unspecified) | inactive: 102% |
| COc1cc2cc3c(N)c(C(=O)c4ccc5c(c4)OCCO5)sc3nc2cc1OC | inactive: 116% |
| O=C(NCCCn1ccnc1)c1ncoc1-c1ccccc1C(F)(F)F | inactive: 94.6% |
| Cc1ccc(Cn2nnc(C(=O)O)c2C(=O)O)cc1 | inactive: 31.3% |
| CCc1cccc(C)c1NC(=O)Cn1c(=O)cc(C(F)(F)F)c2c(C)nn(C)c21 | inactive: 100% |
| COC(=O)c1c(-c2cccc(F)c2)noc1NC1CCCc2ccccc21 (stereo unspecified) | inactive: 54.6% |
| Cc1ccc(/C=C/c2nc(C#N)c(N3CCN(C(=O)COc4ccc(C)cc4)CC3)o2)cc1 | inactive: 93.1% |
| O=C(CCc1ccccc1)Nc1c2c(nn1-c1ccccc1)CS(=O)(=O)C2 | inactive: 112% |
| O=C(NCCCSc1nc2ccccc2o1)Nc1ncccn1 | inactive: 59.3% |
| Nc1cc(-c2ccco2)nn(CC(=O)NCC2COc3ccccc3O2)c1=O (stereo unspecified) | inactive: 80.8% |
| O=C(CC1C(=O)N(c2ccc(F)cc2)C(=O)N1NC(=O)c1ccccc1)NCc1ccccc1 (stereo unspecified) | inactive: 112% |
| Cn1c(CN2CCOCC2)nc2cc(NC(=O)C3(C)CCCO3)ccc21 (stereo unspecified) | inactive: 114% |
| Cc1cc2cc(CNC(=O)NC3CCCCC3)ccc2[nH]1 | inactive: 102% |
| CC1Cc2nc(SCC(=O)NCC3CCCO3)n(C)c(=O)c2S1 (stereo unspecified) | inactive: 92.1% |
| CS(=O)(=O)c1ccc2nc(NC(=O)c3ccccc3[N+](=O)[O-])sc2c1 | inactive: 66.7% |
| Cc1nn(C)c(C)c1CNC(=O)Cn1c(=O)c(=O)n(Cc2ccncc2)c2ncccc21 | inactive: 114% |
| CCOc1ccc(NC(=O)c2sc3nc4c(cc3c2N)C(=O)CC(C)(C)C4)cc1 | active: 154% |
| CC(C)(C)C(=O)N1CCC(NS(=O)(=O)c2ccc3c(c2)NC(=O)CO3)CC1 | inactive: 105% |
